Measured values: the supplement of paper PMC5949888
Most values lie at the floor of the assay. Slopes are relative: functional sequences can read slightly below zero.

What follows are substances tested on Saccharomyces cerevisiae PS128 hsf1 delta, HSF1(1-493) fusion (assay: growth estimate (transactivation domain function in HSF1 fusion, heat-shock survival) (a.u. (slope of normalised read count over time)); higher = stronger growth at 37°C, i.e. more transactivation activity). Settings: library: random library.

| Substance | growth estimate |
| --- | --- |
| VVSGDPEAVRTLGSSPRWPA | < -0.25 |
| SGLWEGEGSSG | < -0.25 |
| KCHSR | < -0.25 |
| SSDA | < -0.25 |
| TCTGWITR | < -0.25 |
| TSLV | < -0.25 |
| GPPSLVVAVTSGYPARPS | < -0.25 |
| QADRY | < -0.25 |
| SVYRRMGSVRARSEPFLSRT | < -0.25 |
| RTTKFRIARVYYVESGQ | < -0.25 |
| CNIRSNRHC | < -0.25 |
| IFCYSTQQTAS | < -0.25 |
| SCVGTQ | < -0.25 |
| VSS | < -0.25 |
| YADDGTFSNLVRPEATRSLR | -0.246 |
| GEQCCLRCYSGAMSVCEHWG | < -0.25 |
| HTP | < -0.25 |
| TGKFPKWGLVPRRADSHSSF | < -0.25 |
| SYAHDGSRTPR | < -0.25 |
| DRTEPRVCDVR | < -0.25 |
| GRVAGGLDSPARLPLKGPGE | < -0.25 |
| NLFV | < -0.25 |
| LCVRKG | < -0.25 |
| RCLGHFDTLT | < -0.25 |
| HGAYGNKGLRNTGQSLAVD | < -0.25 |

| Substance | growth estimate |
| --- | --- |
| KLMWRTRKLCIGRT | < -0.25 |
| PVSCMETRAHRGSATGRRTL | < -0.25 |
| EFNHVPLAGFL | < -0.25 |
| SRMSWSMSDRAHIRDCRRGP | < -0.25 |
| TRVRGLRGLKGYLSRSYKTP | < -0.25 |
| GIQTLGTYALSVKAGSYVRP | < -0.25 |
| LGILPGDLVR | < -0.25 |
| FGSMSNTCLGC | < -0.25 |
| RAGKPYLVNVFTSGQPDFKC | < -0.25 |
| VDVTGRNAHHPKV | < -0.25 |
| WSSSALYSCCRVLRLRPIDV | < -0.25 |
| EPDTDGGEVFYAMTGARTRA | < -0.25 |
| TNDVRRCTPHPDRVTLTQEQ | < -0.25 |
| TIGEVCRL | < -0.25 |
| LCLGTILPWRLKRLWSGVPG | < -0.25 |
| IRSVP | < -0.25 |
| HRSNAYQHCRSGRPGRAVKD | < -0.25 |
| ETCPGDNR | < -0.25 |
| ADMGIQVSLTLLMG | < -0.25 |
| SCTPRDPGTDGLFRFAAHGR | < -0.25 |
| RLRVRLHKRLARLRFG | < -0.25 |
| SGGIDRGAPKTSLQARS | < -0.25 |
| GWGSGRNHRLSPLRNVDCQG | < -0.25 |
| PLERAVEMGGGPHRRRYVFR | < -0.25 |
| CRLGVRWSNVWSVIAEPGNF | < -0.25 |

Pulled one by one from the list above, 7 records:

| Substance | growth estimate |
| --- | --- |
| ADMGIQVSLTLLMG | < -0.25 |
| EFNHVPLAGFL | < -0.25 |
| WSSSALYSCCRVLRLRPIDV | < -0.25 |
| GWGSGRNHRLSPLRNVDCQG | < -0.25 |
| LCLGTILPWRLKRLWSGVPG | < -0.25 |
| SGGIDRGAPKTSLQARS | < -0.25 |
| CRLGVRWSNVWSVIAEPGNF | < -0.25 |

Given tab-delimited: entries from further up
Substance	growth estimate
PVSCMETRAHRGSATGRRTL	< -0.25
EFNHVPLAGFL	< -0.25
LGILPGDLVR	< -0.25

Later entries.

| Substance | growth estimate |
| --- | --- |
| ASKSLLRFSFKLHVSYPSSA | < -0.25 |
| PALGEPKSSRGCECFHCPLD | < -0.25 |
| IGKGAYINYRRPIPTTCSDC | < -0.25 |
| GDSIVNLSVLLIS | < -0.25 |
| QIRFGTLLTPDIFFHRTSGG | < -0.25 |
| KQVQRVGDASSISRREATPA | < -0.25 |
| ILRFEGMLWIQLLELFGCPN | < -0.25 |
| RDHLCTRWSLELDY | < -0.25 |
| IGNSRVAG | < -0.25 |
| PLMFASGWQSTAL | < -0.25 |
| KWNTNYFPCGPRQTPSLRPV | < -0.25 |
| TQALVFHVCLLAPFHEYRLA | < -0.25 |
| CLLRNKLIKLG | < -0.25 |
| GHGIKWVLRTWVQHRRGTGP | < -0.25 |
| AYILIGSE | < -0.25 |
| KSDLSATPL | < -0.25 |
| SQYCPELLVAIWLLWTPHCS | < -0.25 |
| HKIDKTKVVGVSLVGERIPV | -0.247 |
| FTLRELQIWLRSLLHCLNTR | < -0.25 |
| ATVKSCLGQSLCRRSVRTNW | < -0.25 |
| IAFWTERRNLSNSVRGFIVG | < -0.25 |
| GLHSRQFGIFLPD | < -0.25 |
| PRPFDPALFGVRF | < -0.25 |
| LECKCVLGVIGGLYWVV | < -0.25 |
| LIKTLRFIRSLIYLRGKGLR | < -0.25 |

| Substance | growth estimate |
| --- | --- |
| AYEH | < -0.25 |
| TNQPIPKLIPWGMRRAGLAC | < -0.25 |
| MLHRVLAFEMFVAKGTPRSG | < -0.25 |
| FLFPKSVRFKSAISGKIVKG | < -0.25 |
| LMKLLARNTQKIKQMAWSGV | < -0.25 |
| LFYQRTPHVLTSQLSVSHTG | < -0.25 |
| IYLCEMLVW | < -0.25 |
| HTRFSQLRDAP | < -0.25 |
| VQLLADGRN | < -0.25 |
| ERTTANGNCTLTMSHGLRRR | < -0.25 |
| AVSACDRGGQRPKERIPIV | < -0.25 |
| VCNVRGGSEKVHP | -0.231 |
| DCASPLRY | < -0.25 |
| LNGSQGIGRLGVSRSAAGSR | < -0.25 |
| WGERQVRVCTGCSYFKLP | < -0.25 |
| ANGRPTGALARVRRDCSQLG | < -0.25 |
| SQF | < -0.25 |
| PASKSRA | < -0.25 |
| VVHDIGRKSAHARFVEIRHL | < -0.25 |
| TTLLANKNRCPHSKTSDSGC | < -0.25 |
| VRRGL | < -0.25 |
| RTALGVLRRFGRALNLWTRT | < -0.25 |
| VEYE | < -0.25 |
| KMAFSRPCLYAYCRYRSAVW | < -0.25 |
| LGTTVRMIPRKSVGRWVRTR | < -0.25 |

| Substance | growth estimate |
| --- | --- |
| REFDVFFAGI | -0.0584 |
| YEGNFIGVIDDLGS | < -0.25 |
| GLPISQWGTRAPVHPPLGGV | < -0.25 |
| RQVKGSLSNAIDYRGSLLAE | < -0.25 |
| QDFKQGAVFDEEPVAELA | < -0.25 |
| ERILCTECTSVRSFEITDVQ | < -0.25 |
| PDPTRVG | < -0.25 |
| DLIQTSLSVKGRA | < -0.25 |
| YRGSSDGKMGEIQLIYTKVS | < -0.25 |
| GRVFNVESVVGPSAHVLMGI | < -0.25 |
| PSLWVLMHNVIFCPGMWLQG | -0.239 |
| HDSVSYDRFSPRVLQPLPRS | < -0.25 |
| DRGESQAN | -0.243 |
| CLGMLYNQA | < -0.25 |
| KRCIQIYSA | < -0.25 |
| RRVSLGDSSIIPGAQQPSSS | < -0.25 |
| RLKKLGSSL | < -0.25 |
| EKPSSNPDGTISLLRKHWPQ | < -0.25 |
| PAEVTWRLSSVLTFCGVGGD | < -0.25 |
| GDSWAQRYQSAARRFRNNAD | < -0.25 |
| YADVLHEVPSKCFPGSWAGE | < -0.25 |
| VLRRGDVIEPR | < -0.25 |
| GKPQLNIHAHRPGCNTSDEN | < -0.25 |
| YLDNSCTQGFGFRPGWSVLL | < -0.25 |
| VSVVYYWPRQGGALAAAILL | < -0.25 |

| Substance | growth estimate |
| --- | --- |
| SAVCGGLGDQPVAWG | < -0.25 |
| GGDKTTGSRVTAVVYARSHG | < -0.25 |
| LSLFA | < -0.25 |
| RSRA | < -0.25 |
| TAWSSHMRVRDC | < -0.25 |
| TNHVAYEGVWSIKQGNGDRL | < -0.25 |
| GPQVTLSIAASRAVQ | < -0.25 |
| GWTLWAMNACSRDWLARCSR | < -0.25 |
| GKTAWSCECKSSLRQLMSGR | < -0.25 |
| GGSDCEMRLHCVLTVRDH | < -0.25 |
| LVVQLECGASTLDEHNFSVR | < -0.25 |
| LLLSLSMDNAESGDQSATSS | < -0.25 |
| EDG | < -0.25 |
| KSS | < -0.25 |
| SLSMRIIVGACKST | < -0.25 |
| YTSVHFGETGKPPAPSDTGV | < -0.25 |
| VWWVTAIFPLGFRECVPLSS | < -0.25 |
| VMIAVAVGNW | < -0.25 |
| CECIGPTGLPPLCPGILTFA | < -0.25 |
| SLTPVFVLRQVFVLYNSRDH | < -0.25 |
| VIFVTIGPPGELLALGGRGL | < -0.25 |
| WAMQIRYAA | < -0.25 |
| HGFWSKLCI | < -0.25 |
| TLITQSYASKFGQSELFIDC | < -0.25 |
| LPRCMVPGTGERGWVQSKLH | < -0.25 |

| Substance | growth estimate |
| --- | --- |
| QSTGRKVMWADVGSY | < -0.25 |
| GGHRMAESMHFGPRFPRMT | < -0.25 |
| TTWYTDLYASSLKAIQIIPS | -0.214 |
| SRVK | < -0.25 |
| EQVRTDVVVTFFTILGPSVG | < -0.25 |
| RSLKVKDMVRQGTIAR | < -0.25 |
| PPSLPDWAVFWRNTDNCS | 0.388 |
| VKHADHPRVRKPEAIWVYAP | -0.169 |
| SSIAVS | < -0.25 |
| LSCDLFEFNRATSQMS | < -0.25 |
| RGESHSRVSRSLPTRIGGQG | < -0.25 |
| RKGPLVRRVALARSTSLRLV | < -0.25 |
| TYVLFKPFIASYRIVRKEAS | < -0.25 |
| PTDRKGRNPCPEFWLFK | < -0.25 |
| SPLHISTSAP | < -0.25 |
| SVAGILKASCYEIIVARLRG | < -0.25 |
| SIFRVERCLGFNGRHRYLSG | < -0.25 |
| SKHRPVTRTRKLIMAWLEWQ | < -0.25 |
| RRCCMSKVFRSSGYVPRAGP | < -0.25 |
| AIPRKQILGVYLRTYPLRER | < -0.25 |
| REPTSPDFISGGPSKRVLDL | < -0.25 |
| GLWSTG | < -0.25 |
| NRKHGLEVLGAQPVDDVHP | < -0.25 |
| RATRPTIVPATWLNSIKRDA | < -0.25 |
| NPGSRSANEIEVRDCRAPLT | < -0.25 |

| Substance | growth estimate |
| --- | --- |
| AML | < -0.253 |
| PSLPIASREDNGPAIRSMTQ | < -0.25 |
| CIVTHKSGGIGRDLVYGYRS | < -0.25 |
| YNGLIYKVAQRHFFRFVSVV | < -0.25 |
| VGVMVRTGRRDDK | < -0.25 |
| LDPQLSNGGER | -0.223 |
| GNNQSVRSV | < -0.25 |
| SHDEREMKCIMTPREI | < -0.25 |
| PAMS | < -0.25 |
| TGENLETTNMEDLRWCCSDT | < -0.25 |
| AGARPRSAA | < -0.25 |
| NRPKTSWVKFWDCTRAVASP | < -0.25 |
| HTSQSEKLTQVI | < -0.25 |
| GVCTGHGPSEAAC | -0.235 |
| TIGGSR | < -0.25 |
| GEKPGGAFFHGPARPTGTRG | < -0.25 |
| SKPVIVDTSRP | < -0.25 |
| EFFQYGAPRVRIQTHMDPLF | < -0.25 |
| FHSGSMNFG | < -0.25 |
| NSWWAL | < -0.25 |
